Results published in patent US11339448B2, “Treatment of acute myeloid leukemia” (Ottawa Hospital Research Institute, priority 2018, dated 2022).
Some entries share one result that the patent states for a list of compounds.

Assays:
[1] = test system: MTF2-deficient refractory AML (MD-AML) patient-derived xenograft (PDX) cells; assay: AML patient-derived xenograft (PDX) NSG mouse treatment study; type: in vivo; conditions: treated at ≥20% CD45+CD33+ blasts in peripheral blood, experiment terminated at 16 weeks
[2] = test system: Lin−CD34+ HSPCs; assay: Cell viability / apoptosis assay (Annexin V/7-AAD) in shRNA-transduced HSPCs; type: cell-based, human; conditions: 48 hours after treatment (Daunorubicin 0.5 μM or Cytarabine 1 μM)
Protocol: HSPCs (Lin^−CD34^+) were maintained in IMDM media containing bovine serum albumin, insulin, and transferrin (Stem Cell Technologies), 1% PenStrep (ThermoFisher), SCF (100 ng/mL), TPO (50 ng/mL), FLT3 (100 ng/mL), 1% Glutamax (InVitrogen), and LDL (1 μg/ml) (Calbiochem). Growth factors were purchased from Peprotech. On Day 1 of infection, cells were incubated with polybrene (Sigma) (6 mg/ml) for 2 hours at 37° C., then combined with viral supernatants containing either a GFP-tagged MTF2 shRNA clone or a scrambled shRNA control (ThermoFisher) at a MOI of 100. Cells were centrifuged at 400 g for 20 minutes, then maintained at 37° C. On Day 2, the infection was repeated. Cells were grown for 3 days using a fed-batch culture system^21, then sorted for high GFP-expression and viability by negative selection of Propidium Iodide using the Beckman Coulter MoFlo sorter.
Apoptosis was assessed in sorted cells by the dual staining of AnnexinV and 7-AAD (eBiosciences). Flow cytometric analyses of treated samples were performed consistently, using the same gating strategy throughout. Viable cells were categorized as being AnnexinV and 7-AAD negative, late apoptotic/dead cells were categorized as being AnnexinV and 7-AAD positive. […]

Structure (SMILES)	survival of PDX mice after treatment [1]	scramble shRNA control cells survived [2]
COc1ccc(C2=N[C@@H](c3ccc(Cl)cc3)[C@@H](c3ccc(Cl)cc3)N2C(=O)N2CCNC(=O)C2)c(OC(C)C)c1 [Nutlin3A, 4-[(4S,5R)-4,5-bis(4-chlorophenyl)-2-(4-methoxy-2-propan-2-yloxyphenyl)-4,5-dihydroimidazole-1-carbonyl]piperazin-2-one]	4-5 weeks	
Nc1ccn([C@@H]2O[C@H](CO)[C@@H](O)[C@@H]2O)c(=O)n1 [Cytarabine]		less than 6%
